# Experimental data reported in paper PMC10393992 (Nature Communications, 2023).
# Positions count from the first letter of the chain named. Results are given in words; binding and its absence hold for the method and conditions named. In cells and extracts the contact can be indirect. Binding can be weak; no strength is given. Sequences can lack the tags named with a protein.
# What was measured:
# [1] = target: T1, GST-tagged CIP4-SH3(W524K) (Mus musculus) (UniProt Q8CJ53); test: pull-down; GST-tagged CIP4-SH3 (~5 ug) on GSH Sepharose 4B beads mixed with cell lysate containing EGFP-N-WASP; 4 C, 25 min; eluted with 100 mM GSH; western blot with anti-GFP; only the target purified
# T1 sequence: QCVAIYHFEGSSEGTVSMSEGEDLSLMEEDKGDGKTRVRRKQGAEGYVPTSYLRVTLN
# [2] = target: T2, GST-tagged CIP4-SH3(WT) (Mus musculus) (UniProt Q8CJ53); test: as above
# T2 sequence: T1 sequence with K35W
substance,measurement,setting,value
EGFP-fused N-WASP (Homo sapiens),binding,[1],binds
same,binding,[2],binds
